Data: article PMC7289907

Protein sequences, listed by entry. Tags and fused reporters are not part of them.
UniProt P52926: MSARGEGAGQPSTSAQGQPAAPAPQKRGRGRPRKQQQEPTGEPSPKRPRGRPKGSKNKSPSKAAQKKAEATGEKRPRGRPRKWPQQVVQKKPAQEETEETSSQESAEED

Target: T1, T7-PJA1 (Praja ring finger E3 ubiquitin ligase 1) (human) (UniProt Q8NG27)
T1 sequence: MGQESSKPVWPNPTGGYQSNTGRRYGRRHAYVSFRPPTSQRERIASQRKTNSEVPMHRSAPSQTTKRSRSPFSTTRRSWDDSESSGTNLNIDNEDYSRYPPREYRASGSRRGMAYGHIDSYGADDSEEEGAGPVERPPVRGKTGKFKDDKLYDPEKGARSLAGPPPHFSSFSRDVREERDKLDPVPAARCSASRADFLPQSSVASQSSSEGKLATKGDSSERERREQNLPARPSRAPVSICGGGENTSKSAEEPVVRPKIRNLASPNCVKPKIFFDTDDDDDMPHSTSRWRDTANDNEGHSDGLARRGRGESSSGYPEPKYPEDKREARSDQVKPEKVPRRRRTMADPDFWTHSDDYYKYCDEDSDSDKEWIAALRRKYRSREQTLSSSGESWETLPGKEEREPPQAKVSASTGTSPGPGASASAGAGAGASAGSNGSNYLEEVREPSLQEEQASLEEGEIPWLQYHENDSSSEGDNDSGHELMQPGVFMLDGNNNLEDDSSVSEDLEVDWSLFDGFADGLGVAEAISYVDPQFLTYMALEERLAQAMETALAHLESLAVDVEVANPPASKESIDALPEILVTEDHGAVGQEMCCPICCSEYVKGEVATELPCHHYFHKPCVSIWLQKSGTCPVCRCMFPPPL
Assay: affinity purification with mass spectrometry; HepG2 cells transfected with T7-PJA1, with or without TGF-β1 (200 pM, 3 h); lysate in NP-40 buffer (50 mM Tris-HCl pH 7.5, 0.15 M NaCl, 1% NP-40, 1 mM EDTA), 1 mg protein precipitated with T7 antibody-beads; SDS-PAGE, silver stain; bands seen only in the TGF-β1 lane cut out for mass spectrometry

## High mobility group AT-hook 2 (HMGA2) (from UniProt P52926 1-109)
  binding: binds

Results are given in words; binding and its absence hold for the method and conditions named. In cells and extracts the contact can be indirect. Here binding means that the protein was enriched with, or labelled near, the bait; the list need not be complete.
